Data from PubChem BioAssay AID624297 (National Center for Advancing Translational Sciences (NCATS), 2012).
The campaign covered roughly 340,000 compounds. About 6,200 (1.8%) were called active. The inconclusive results got no clear call from the source; some entries with a clear call stand among them for comparison. Calls follow the shape of the dose curve; as a rule, active = well fitted activation curve with a large enough effect; inconclusive = small, poorly fitted or top-dose-only effect; inactive = no such curve, though single readings can be large or run the other way. Potencies beside an inconclusive call are fits to weak or partial responses and may not hold up.

Assay: A quantitative high throughput screen for small molecules that induce DNA re-replication in SW480 colon adenocarcinoma cells. Also: nearly all actives have a fitted effect of over 55% in size. As to re-replication activation: % of control where 0% means no effect.
Conditions: Hoechst DNA content imaging, 48 h; re-replication activation: at 46.1 µM (top of the series)
Summary of the method: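 First, 250 cells per well were seeded. Next, compound or vehicle (23 nL) was pinned in, plates sat 48 hr at 37 C. Finally Hoechst was added for 40 min before fluorescence scanning.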
Potency is read from the fitted curve at half-maximal effect.

Row | Compound | Potency | re-replication activation
1 | COc1cccc(CSc2nnnn2-c2ccc(O)cc2)c1 | inconclusive: 18.4 µM [activator, partial curve, poor fit] | –
2 | Cc1nc(N2CCOCC2)c2cc(-c3ccccc3)sc2n1 | – | inactive: 0.392% [at 9.22 µM]
3 | COc1ccc(CNC(=O)c2ccc(S(=O)(=O)N3CC(C)CC(C)C3)cc2)cc1OC (stereo unspecified) | – | inactive: 8.89%
4 | COc1ccc(-c2ccnc(-c3ccncc3)n2)cc1 | active: 20.6 µM | –
5 | Cc1ccc(C(C)C)cc1OCCCCN1CCCC1 | – | inactive: 12%
6 | O=C(CCNC(=O)c1ccc(Br)cc1)NCc1ccco1 | inconclusive: 23.1 µM [activator, single point] | –
7 | Cc1nn(CCO)c(N)c1C1(O)C(=O)Nc2c(Cl)cc(Cl)cc21 (stereo unspecified) | inconclusive: 29.1 µM [activator, single point] | –
8 | Cc1cc(N(C)N)nc(NC(=O)NS(=O)(=O)c2ccccc2Cl)n1 | – | inactive: -7.85%
9 | CCOC(=O)c1ccc(N2C=C(C(=O)OC)C(c3ccc(OC)c(O)c3)C(C(=O)OC)=C2)cc1 | inconclusive: 8.2 µM [activator, partial curve, poor fit] | –
10 | CN(CC(=O)O)S(=O)(=O)c1ccc2c(c1)n(C)c(=O)c(=O)n2C | – | inactive: 7.19%
11 | Cc1cc(OCC(=O)N2CCC(C(=O)O)CC2)c2c(C)c(C)c(=O)oc2c1 | – | inactive: -27.2%
12 | O=[N+]([O-])c1ccc(N2CCN(C(=S)Nc3ccccc3)CC2)cc1 | – | inactive: 1.7%
13 | CN(C(=O)c1ccc(NC(=O)Cc2cccc(NC(=O)C3CCCN(C(=O)C4CCC4)C3)c2)cc1)C1CCCC1 (stereo unspecified) | inconclusive: 14.6 µM [activator, partial curve, poor fit] | –
14 | O=C(Nc1ccc(NC(=O)c2ccco2)nc1)c1cccnc1 | – | inactive: -1.96%
15 | O=C(Nc1ccc(-c2nc3ccc(NC(=O)c4cccs4)cc3[nH]2)cc1)c1cccs1 | inconclusive: 11.6 µM [activator, single point] | –
16 | CC(=O)c1c(C)[nH]c(C(=O)OCC(=O)c2ccc3c(c2)NC(=O)CO3)c1C | – | inactive: -6.31%
17 | CC1(C)Cc2c(c(N3CCOCC3)nc3sc(C(=O)Nc4cccc(Cl)c4)c(N)c23)CO1 | inconclusive: 0.731 µM [activator, partial curve, poor fit] | –
18 | O=C(Nc1nnc(-c2cccs2)o1)c1cccc(F)c1 | inconclusive: 20.6 µM [activator, partial curve, poor fit] | –
19 | COc1ccccc1C(=O)NC(=O)COC(=O)C1CCC1 | – | inactive: -3.19%
20 | Cc1cc(C)cc(-n2ncc3c2CCCC3NC(=O)C2(C(N)=O)CC2)c1 (stereo unspecified) | – | inactive: -4.23%
21 | COc1ccc(S(=O)(=O)NCCc2nnc3ccc(SCC(=O)Nc4cc(C)on4)nn23)cc1 | inconclusive: 29.1 µM [activator, single point] | –
22 | Cc1ccccc1-n1c(SCC(=O)N/N=C/c2sccc2C)nc2ccccc2c1=O | inconclusive: 6.51 µM [activator, single point] | –
23 | CCN(CC)c1ccc2cc(-c3nc4ccccc4n3C)c(=O)oc2c1 | active: 0.58 µM | –
24 | NC(=O)C1CCN(CC(=O)Nc2ccccc2Sc2ccc(Cl)cc2)CC1 | – | inactive: -5.86%

Row | Compound | Potency | re-replication activation
25 | Cc1ccc(S(=O)(=O)CCc2nc3ccccc3s2)cc1C | – | inactive: -7.21%
26 | COc1ccccc1CN1CCN(C(c2ccccc2)c2ccccc2)CC1 | – | inconclusive: 25.1% [activator]
27 | O=C1OC(c2ccccc2)(c2ccc3cc(O)ccc3c2)c2ccccc21 (stereo unspecified) | inconclusive: 1.16 µM [activator, partial curve, poor fit] | –
28 | Cc1ccc(CCNC(=O)C2CCCN(S(C)(=O)=O)C2)cc1 (stereo unspecified) | – | inactive: -2.52%
29 | Cc1cccc(/C=C2/SC(=O)N(Cc3ccccc3)C2=O)n1 | inconclusive: 3.66 µM [activator, single point] | –
30 | CC(=O)Nc1sc(C)c(C)c1C(=O)OCC(=O)Nc1cccc(C)c1 | inconclusive: 29.1 µM [activator, single point] | –
31 | COc1cc2c(cc1OC)C(c1ccco1)CC(=O)N2 (stereo unspecified) | – | inactive: -21.9%
32 | Cc1cccc(C(C#N)c2nc3ccccc3nc2C(F)(F)F)c1 (stereo unspecified) | – | inactive: -2.57%
33 | O=C(Nc1ccc(S(=O)(=O)N2CCCC2)cc1)C1CCN(S(=O)(=O)c2ccc(F)cc2)CC1 | inconclusive: 25.9 µM [activator, single point] | –
34 | Cc1noc(C)c1COc1ccccc1C(=O)N1CCN(S(=O)(=O)c2ccccc2Br)CC1 | inconclusive: 29.1 µM [activator, single point] | –
35 | CCOc1ccc(-c2c(C(=O)N/N=C/c3ccc(O)cc3)nnn2-c2nonc2N)cc1 | inconclusive: 29.1 µM [activator, partial curve, poor fit] | –
36 | O=C(NC(=S)N1CCc2ccccc21)C1CCC1 | – | inactive: -5.85%
37 | O=C1CNC(=S)N1CCOc1ccccc1 | inconclusive: 14.6 µM [activator, partial curve, poor fit] | –
38 | Cc1ccc(Sc2cnccc2C#N)cc1 | – | inactive: -2.5%
39 | CC12CNCC(C)(CN(C3(O)C(=O)Nc4ccc(Br)cc43)C1)C2=O (stereo unspecified) | inconclusive: 1.46 µM [activator, single point] | –
40 | O=C(CN1c2ccccc2S(=O)(=O)c2ccccc21)Nc1ccccc1F | inconclusive: 0.461 µM [activator, partial curve, poor fit] | –
41 | O=C(Nc1ccc2c(c1)CCC2)Nc1ccccc1F | – | inactive: 0.895%
42 | CCCC1(C2CCCC2)NC(=O)NC1=O (stereo unspecified) | – | inactive: 0.866%
43 | COc1cccc2oc3ccc(C#CC4(N)CCCCC4)cc3c(=O)c12 | inconclusive: 23.1 µM [activator, partial curve, poor fit] | –
44 | O=C(CNC(=O)c1cccs1)c1ccc(Cl)cc1 | – | inactive: 0.722%
45 | O=C(c1cc(C2CC2)on1)N1CCCC(N2CCN(c3ccc(F)cc3)CC2)C1 (stereo unspecified) | – | inactive: -8.79%
46 | O=C(COC(=O)c1cccs1)Nc1cccc(S(=O)(=O)N2CCOCC2)c1 | – | inactive: -4.76%
47 | COc1ccc(OC)c(C(=O)COC(=O)CN2C(=O)NC3(CCCCC3C)C2=O)c1 (stereo unspecified) | inconclusive: 16.4 µM [activator, partial curve, poor fit] | –
48 | C#CCOCCOCCOCCNc1nc(N2CCN(C(=O)CCCCCCCCCCNC(=O)[C@@H](CCC(=O)O)n3cc(CCCCCN)nn3)CC2)nc(N2CCN(C(=O)CCCCCCCCCCNC(=O)[C@H](CO)n3cc(CCCSC)nn3)CC2)n1 | inconclusive: 4.11 µM [activator, single point] | –

Row | Compound | Potency | re-replication activation
49 | Cc1ccc(N(CC(=O)NCCc2ccc(F)cc2)S(=O)(=O)c2ccc(Cl)c([N+](=O)[O-])c2)c(C)c1 | inconclusive: 23.1 µM [activator, single point] | –
50 | CCC(C)(C)n1nnnc1C(c1cccnc1)N1CCN(c2cccc(C(F)(F)F)c2)CC1 (stereo unspecified) | inconclusive: 20.6 µM [activator, single point] | –
51 | C=CCc1ccc(OCC(O)CN2CCC(Cc3ccccc3)CC2)c(OC)c1 (stereo unspecified) | inconclusive: 32.6 µM [activator, partial curve, poor fit] | –
52 | CCC(=O)Nc1cccc(-c2nc3ncccc3o2)c1C | inconclusive: 4.11 µM [activator, full curve, poor fit] | –
53 | C=CCSc1ncnc2c1oc1nc3c(cc12)COC(C)(C)C3 | inconclusive: 3.66 µM [activator, single point] | –
54 | CC(C)NC(=S)NN=C1CCC(c2ccccc2)CC1 (stereo unspecified) | active: 20.6 µM | –
55 | Cc1ccnc(NC(=S)NC(=O)/C=C/c2ccco2)c1 | inconclusive: 18.4 µM [activator, single point] | –
56 | CCOC(=O)N1CCN(C(=O)CCl)CC1 | – | inactive: -4.05%
57 | CCN(CC)C(=O)[C@H]1C[C@H](CC(=O)NC(C)(C)C)C(=O)N2CCc3c([nH]c4cc(-c5ccco5)ccc34)[C@]12C | inconclusive: 0.164 µM [activator, full curve, poor fit] | –
58 | O=C(CSc1ccccc1)Nc1ccc(N2CCOCC2)cc1 | inconclusive: 18.4 µM [activator, partial curve, poor fit] | –
59 | COC(=O)CCC(=O)OC | active: 4.61 µM | –
60 | COc1cc(/C=C/C(=O)OCC(=O)NC(=O)NC(C)C)ccc1O | inconclusive: 29.1 µM [activator, single point] | –
61 | CCOC(=O)c1cc2cc3ccccc3cc2[nH]1 | inconclusive: 3.66 µM [activator, full curve] | –
62 | COc1ccccc1CN(C)C(=O)CSCC(=O)Nc1ccccc1F | – | inactive: 1.29%
63 | CCn1c(CNC(=O)Cc2ccc(OC)cc2)nnc1SCC(=O)NC1CCCCC1 | – | inactive: -1.71%
64 | CCN1CCC(O)(/C=C/c2ccc(C(C)C)cc2)C(C(=O)/C=C/c2ccc(C(C)C)cc2)C1 (stereo unspecified) | inconclusive: 9.2 µM [activator, partial curve, poor fit] | –
65 | N#C/C(=C\c1ccc(O)c(O)c1)C(=O)Nc1ccccc1 | inconclusive: 0.58 µM [activator, single point] | –
66 | COc1ccc([N+](=O)[O-])cc1NC(=O)C(C)OC(=O)CN1C(=O)C2CC=CCC2C1=O (stereo unspecified) | inconclusive: 1.16 µM [activator, single point] | –
67 | COc1ccc(C(=O)Nc2ccc(S(=O)(=O)N3CCCC3)cc2)cc1 | – | inactive: -1.77%
68 | Cc1nc2c(C(=O)NCc3ccco3)cnn2c(C)c1Cc1ccc(F)cc1Cl | inconclusive: 20.6 µM [activator, partial curve, poor fit] | –
69 | CCN(CC)c1nc2ccccc2nc1C(C#N)C(=O)NCCCOC (stereo unspecified) | inconclusive: 29.1 µM [activator, partial curve, poor fit] | –
70 | COc1cc(C(=O)N/N=C/c2coc3ccc(Cl)cc3c2=O)ccc1O | inconclusive: 32.6 µM [activator, partial curve, poor fit] | –
71 | CCC(C)NCCOCCOc1ccc(C)cc1OC (stereo unspecified) | inconclusive: 18.4 µM [activator, single point] | –

Of the compounds above, 3 contain bromine:
Row | Compound | Potency | re-replication activation
6 | O=C(CCNC(=O)c1ccc(Br)cc1)NCc1ccco1 | inconclusive: 23.1 µM [activator, single point] | –
34 | Cc1noc(C)c1COc1ccccc1C(=O)N1CCN(S(=O)(=O)c2ccccc2Br)CC1 | inconclusive: 29.1 µM [activator, single point] | –
39 | CC12CNCC(C)(CN(C3(O)C(=O)Nc4ccc(Br)cc43)C1)C2=O (stereo unspecified) | inconclusive: 1.46 µM [activator, single point] | –
